Positions count from the first letter of the chain named. Names may count otherwise. These are yes or no findings as the source states them, for the method shown. Some binding calls cover weakened binding; strength is not graded here. For part of these data: Sequences can lack the tags named with a protein.
T1: HypC (E. coli) (UniProt P0AAM3)
T1 sequence: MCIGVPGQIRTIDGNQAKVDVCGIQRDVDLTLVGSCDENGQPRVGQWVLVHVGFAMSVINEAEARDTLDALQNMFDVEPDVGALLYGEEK

T2: HybG with C‐terminal Strep‐TagII (E. coli) (UniProt P0AAM7)
T2 sequence: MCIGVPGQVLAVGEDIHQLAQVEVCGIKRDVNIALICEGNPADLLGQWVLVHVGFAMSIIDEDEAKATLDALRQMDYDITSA

B1: HypD (native) (protein, UniProt P24192 1-373)
chain: MRFVDEYRAPEQVMQLIEHLRERASHLSYTAERPLRIMEVCGGHTHAIFKFGLDQLLPENVEFIHGPGCPVCVLPMGRIDTCVEIASHPEVIFCTFGDAMRVPGKQGSLLQAKARGADVRIVYSPMDALKLAQENPTRKVVFFGLGFETTMPTTAITLQQAKARDVQNFYFFCQHITLIPTLRSLLEQPDNGIDAFLAPGHVSMVIGTDAYNFIASDFHRPLVVAGFEPLDLLQGVVMLVQQKIAAHSKVENQYRRVVPDAGNLLAQQAIADVFCVNGDSEWRGLGVIESSGVHLTPDYQRFDAEAHFRPAPQQVCDDPRARCGEVLTGKCKPHQCPLFGNTCNPQTAFGALMVSSEGACAAWYQYRQQESEA
B2: HypD variant C360H (protein, UniProt P24192 1-373)
chain: B1 chain with C360H
B3: HypD variant G146A (protein, UniProt P24192 1-373)
chain: B1 chain with G146A
B4: HypD variant T149A (protein, UniProt P24192 1-373)
chain: B1 chain with T149A
B5: HypD variant T150A (protein, UniProt P24192 1-373)
chain: B1 chain with T150A
B6: HypD variant C323G (protein, UniProt P24192 1-373)
chain: B1 chain with C323G
B7: HypD variant C360G (protein, UniProt P24192 1-373)
chain: B1 chain with C360G
B8: HypD exchange variant C72A (protein, UniProt P24192 1-373)
chain: B1 chain with C72A
B9: HypD exchange variant C69A (protein, UniProt P24192 1-373)
chain: B1 chain with C69A
B10: HypD variant C323H (protein, UniProt P24192 1-373)
chain: B1 chain with C323H
B11: HypD variant C360D (protein, UniProt P24192 1-373)
chain: B1 chain with C360D
B12: HypD variant C323D (protein, UniProt P24192 1-373)
chain: B1 chain with C323D
B13: HypD variant F147A (protein, UniProt P24192 1-373)
chain: B1 chain with F147A
B14: HypD variant E148A (protein, UniProt P24192 1-373)
chain: B1 chain with E148A

Biological target: T1, HypC (E. coli)
Experiment: co-purification (Strep-tag affinity chromatography, then anion exchange chromatography); proteins co-expressed in E. coli; StrepII-tag only on the chaperone; Strep‐tactinXT Sepharose, then Q‐Sepharose Fast Flow (NaCl gradient 0.1–1 M in 50 mM Tris–HCl pH 8); anaerobic chamber, 4 °C; complexes analysed by SDS/PAGE and western blotting with anti‐HypD or anti‐HybG antiserum

binding	Binder
binds	B1

Biological target: T2, HybG with C‐terminal Strep‐TagII (E. coli)
Experiment: as above

binding	Binder
binds	B1
binds	B2
binds	B3
binds	B4
binds	B5
binds	B6
binds	B7
binds	B8
binds	B9
binds	B10
binds	B11
binds	B12
binds	B13
binds	B14

From paper PMC9900092
